Data reported in PubChem BioAssay AID493014 (National Center for Advancing Translational Sciences (NCATS), 2011).
Out of some 340,000 compounds screened, about 170 (0.05%) were called active. The shares of active, inactive and inconclusive entries below differ from those in the screen. Calls come from the whole dose curve; as a rule, active = well fitted inhibition curve with a large enough effect in the signal ratio, with a control signal flat (not every such curve was filed as active); inconclusive = small, poorly fitted or top-dose-only effect, or effect the other way, or a change in a side signal; inactive = flat fitted curve, though single readings scatter; the % refers to the signal ratio. A potency beside an inconclusive call is a rough fit, not a confirmed value.

Test: qHTS Assay to Find Inhibitors of Chronic Active B-Cell Receptor Signaling;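 for activity change, negative = inhibition: plate controls were basal doxycycline-induced cells for no effect and cells given 10 µM MG132 for full effect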
Conditions: ABC-DLBCL IkBa-CBG/CBR reporter, luminescence ratio (green luciferase fused to IkBa over red control in TMD8 lymphoma cells), 4 h; activity change, negative = inhibition: at 46.1 µM (top of the series) unless noted
How it was run: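 Cell line TMD8 (human ABC DLBCL), stably expressing tet-inducible CBG68-IkBa fusion and CBR; IMDM/0.5% FBS; cpd up to 46 uM; dox induction, 4 h, 37C/5% CO2; dual luminescence; green/red ratio; MG132 control.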
Potency is the fitted concentration of half-maximal effect.

| SMILES | activity change, negative = inhibition | Potency |
| --- | --- | --- |
| CCNc1oc(-c2ccccc2F)nc1S(=O)(=O)c1ccccc1 | inconclusive: -2.76% |  |
| Cc1ccc(C(=O)N/C(=C\c2ccc(-c3ccc(Br)cc3)o2)C(=O)NCCCN(C)C)cc1 |  | inconclusive: 22.4 µM [falling, single point] |
| CCOCCOC(=O)C1=C(C)N(C)C(=O)NC1c1ccccc1Cl (configuration not stated) | inactive: 2.79% |  |
| O=c1[nH]c(-[n+]2ccccc2)c(/C=N/NC([S-])=Nc2ccccc2)s1 | inactive: -4.36% |  |
| C/C(CC(=O)NCc1ccco1)=N\NC(=O)COc1ccc(Cl)cc1Cl |  | inconclusive: 10 µM [falling, partial curve, poor fit] |
| Cc1cc(SCc2ccccc2C)nc(=O)[nH]1 |  | inconclusive: 7.94 µM [falling, partial curve, poor fit] |
| O=C(CNC(=O)c1cccs1)NCCc1ccco1 | inconclusive: 6.46% |  |
| COc1cccc(-n2c(SC)nnc2-c2c[nH]c3ccccc23)c1 |  | inconclusive: 20 µM [falling, single point] |
| Cc1nn(Cc2c(Cl)cccc2Cl)c(Cl)c1/C=C/C(=O)OCC(=O)NCC(F)(F)F | inconclusive: -4.04% |  |
| COc1ccc(NC(=O)CSc2ccccn2)c([N+](=O)[O-])c1 | inconclusive: 8.44% |  |
| COc1cccc(/C=C2\SC(=O)N(CCC(=O)N3CCC(C(=O)O)CC3)C2=O)c1 |  | inconclusive: 3.16 µM [falling, partial curve, poor fit] |
| Cc1cc(S(=O)(=O)NCC(=O)O)ccc1F | inconclusive: 6.31% |  |
| c1ccc(C2C/C(=N\N3CCOCC3)c3ccccc3O2)cc1 (configuration not stated) | inconclusive: 1.42% |  |
| CC(/C=C1\SC(=S)N(NC(=O)c2cccc(O)c2)C1=O)=C\c1ccccc1 |  | inconclusive: 20.6 µM [cytotoxic, single point] |
| COC(=O)c1ccc(/C=C2/SC(=S)N(CCCC(=O)Nc3ccccn3)C2=O)cc1 |  | inconclusive: 16.4 µM [falling, partial curve] |
| Cc1sc2nc(C3CC3)nc(N3CCN(C(=O)c4ccc(F)cc4)CC3)c2c1C | inconclusive: -1.09% |  |
| Cc1ccccc1NC(=S)NNC(=O)c1cccc(Br)c1 |  | inconclusive: 6.31 µM [falling, partial curve, poor fit] |
| COc1cccc2cc(C(=O)OCC(=O)NC3CCCC(C)C3C)c(=O)oc12 (configuration not stated) | inconclusive: -15.1% |  |
| CCC(=O)N(CC)c1nc(-c2ccc(OC)cc2)cs1 | inconclusive: 1.81% |  |
| O=Cc1ccc(Sc2nnc(-c3ccccc3)o2)c([N+](=O)[O-])c1 | inconclusive: -18.9% |  |
| O=C(Nc1cccc(NC(=O)c2ccc(-c3cccc(Br)c3)o2)c1)c1ccco1 |  | inconclusive: 0.501 µM [falling, full curve, poor fit] |
| O=C(CCS(=O)(=O)c1ccc(F)cc1)Nc1nnc(-c2ccco2)o1 | inconclusive: 2.31% |  |
| O=C(CC(c1ccccc1)c1ccccc1)NCC(O)c1ccc([N+](=O)[O-])cc1 (configuration not stated) | inconclusive: -0.288% |  |
| COc1cc(NC(=O)CN2C(=O)C(c3ccccc3)=NC23CCCCCC3)cc(OC)c1 | inconclusive: 12% |  |
| COc1ccc(C(=O)N/N=C/c2ccccc2OC(=O)c2ccccc2)cc1 |  | inconclusive: 15.8 µM [cytotoxic, partial curve] |
| FC(F)Oc1ccc(NC(=S)NCc2ccccc2)cc1 | inactive: 7.02% |  |

Quoted at random: six compounds from above

| SMILES | activity change, negative = inhibition | Potency |
| --- | --- | --- |
| O=C(CNC(=O)c1cccs1)NCCc1ccco1 | inconclusive: 6.46% |  |
| c1ccc(C2C/C(=N\N3CCOCC3)c3ccccc3O2)cc1 (configuration not stated) | inconclusive: 1.42% |  |
| COc1cccc2cc(C(=O)OCC(=O)NC3CCCC(C)C3C)c(=O)oc12 (configuration not stated) | inconclusive: -15.1% |  |
| COc1cccc(-n2c(SC)nnc2-c2c[nH]c3ccccc23)c1 |  | inconclusive: 20 µM [falling, single point] |
| O=Cc1ccc(Sc2nnc(-c3ccccc3)o2)c([N+](=O)[O-])c1 | inconclusive: -18.9% |  |
| COc1cc(NC(=O)CN2C(=O)C(c3ccccc3)=NC23CCCCCC3)cc(OC)c1 | inconclusive: 12% |  |

Remaining list, next part

| SMILES | activity change, negative = inhibition | Potency |
| --- | --- | --- |
| COc1ccc2c(-c3cccnc3)cc(=O)[nH]c2c1 |  | inconclusive: 4.11 µM [rising, full curve, poor fit] |
| CCOc1cc(N2CCOCC2)c(OCC)cc1NC(=O)Cc1cccc(OC)c1 | inconclusive: -4.51% |  |
| Cc1ccc(N/N=C2\CC(=O)c3ccccc32)cc1Cl | inconclusive: 12% |  |
| CN(Cc1cn(C)nc1-c1ccc(Oc2ccccc2)cc1)C1CCOC1 (configuration not stated) | inconclusive: 3.13% |  |
| CS(=O)(=O)N1CCc2cc(S(=O)(=O)NCCNS(=O)(=O)c3ccc4c(c3)CCN4S(C)(=O)=O)ccc21 | inactive: -6.64% |  |
| N=C1S/C(=C\c2ccc(-c3cccc(Cl)c3)o2)C(=O)N1c1nccs1 |  | inconclusive: 0.731 µM [falling, full curve] |
| CCOc1ccc(OCC)c(NC(=O)Cn2cccc2)c1 | inconclusive: 4.81% |  |
| O=C(Nc1cccc(NC(=O)c2cccnc2)c1)c1ccccc1 |  | inconclusive: 3.55 µM [falling, partial curve, poor fit] |
| CN(CCCC(=O)Nc1ccccc1F)S(=O)(=O)c1ccc(F)cc1 | inconclusive: -9.59% |  |
| CN(/N=C/c1cc(Cl)cc(Cl)c1O)C(=S)NC(C)(C)C | inconclusive: -0.13% |  |
| COc1nc(NCc2cccnc2)nc(NC2CCCCC2)n1 |  | inconclusive: 32.6 µM [falling, partial curve, poor fit] |
| CCOC(=O)Nc1cccc(OCC(=O)Nc2ccc(OC)cc2OC)c1 | inactive: -3.16% |  |
| COc1ccc(Cl)cc1NC(=O)C1Cc2ccccc2CN1S(C)(=O)=O (configuration not stated) | inconclusive: -0.522% |  |
| NC(=O)C(F)(F)C12OC3C4C5CC(C6C5C3C61)C42 (configuration not stated) | inconclusive: 11.4% |  |
| COc1ccc(S(=O)(=O)NCc2cccnc2)cc1C | inactive: 0.171% |  |
| CCC(CO)NS(=O)(=O)c1cc(-c2nn(C)c(=O)c3ccccc23)ccc1C (configuration not stated) | inconclusive: 1.23% |  |
| CCc1ccc2nc(NC(=O)C3CSC4(C)CCC(=O)N34)sc2c1 (configuration not stated) | inconclusive: 18.4% |  |
| COC(=O)C1=C(C)NC(C)=C(C(=O)OC)C1c1ccccc1[N+](=O)[O-] | inconclusive: 15.5% |  |
| COc1ccc(/C=N/NC(=O)COc2ccccc2-c2ccccc2)cc1 |  | inconclusive: 6.51 µM [falling, partial curve] |
| COc1cc(-c2n[nH]c(=S)n2-c2ccc(C)cc2)cc(OC)c1OC |  | inconclusive: 31.6 µM [rising, partial curve, poor fit] |
| COc1ccc(CCN(C)C(=O)c2cc(S(=O)(=O)NCc3ccccc3)ccc2C)cc1OC | inconclusive: -12.6% |  |
| CCOC(=O)C1=C(C)NC(C)=C(C(=O)OCC)C1C(=O)OCC(=O)NCc1ccccc1 | inactive: -6.36% |  |
| O=C(Nc1ccc(Cl)cc1)Nc1nnc(CSCc2ccccc2)s1 | inactive: 11.8% |  |
| COc1ccc(NC(=O)/C(=C\c2cccs2)NC(=O)c2ccco2)cc1 |  | inconclusive: 0.501 µM [falling, partial curve, poor fit] |
| COc1ccccc1C(CNC(=S)NCc1ccccc1)N1CCCC1 (configuration not stated) |  | inconclusive: 15.8 µM [falling, partial curve, poor fit] |
| CC(C)C(C)(C#N)NC(=O)CSc1nc2scc(-c3ccco3)c2c(=O)n1-c1ccccc1 (configuration not stated) | inconclusive: 1.42% |  |

| SMILES | activity change, negative = inhibition | Potency |
| --- | --- | --- |
| COc1ccc(C(=O)Cn2c3ccccc3n3nc(CCC(=O)O)c(=O)nc23)cc1OC |  | inconclusive: 8.2 µM [falling, single point] |
| CCOc1ccc(OCc2ccc(C(=O)NC(C)(C)C)o2)cc1 | inactive: -1.92% |  |
| COc1cccc(C2CNC3(CCCC(C)C3)c3[nH]c4ccccc4c32)c1OC (configuration not stated) | inconclusive: -5% |  |
| COC(=O)c1ccc(Cl)c(-c2ccc(/C=N/NC(=O)Nc3ccccc3)o2)c1 | inconclusive: 7.5% |  |
| Nc1ccccc1SCc1csc(-c2ccc(Cl)cc2)n1 | inconclusive: 15.9% |  |
| COc1ccc(C2CC(c3ccccc3)=NN2C(=O)CN2CCN(Cc3ccccc3)CC2)cc1 (configuration not stated) | inconclusive: 3.29% |  |
| CCn1c(=O)c([N+](=O)[O-])c(NCCN(C)C)c2ccccc21 | inconclusive: 0.61% |  |
| COc1ccc(CNC(=O)CN2C(=O)CSc3ccc(S(=O)(=O)N4CCOCC4)cc32)c(OC)c1 | inconclusive: 3.76% |  |
| O=C(c1ccco1)N1N=C(c2cccs2)CC1c1ccco1 (configuration not stated) |  | inconclusive: 35.5 µM [rising, partial curve, poor fit] |
| CC(NC(=O)c1ccc(CS(=O)(=O)c2ccc(Cl)cc2)o1)c1ccc2c(c1)OCCO2 (configuration not stated) |  | inconclusive: 29.1 µM [falling, single point] |
| COc1cccc(CN2CCC(C(=O)Nc3ccc(-c4cccc(C)c4)cc3)CC2)c1O | inactive: -3.98% |  |
| COc1ccc(NC(=O)c2ccco2)cc1NC(=O)COc1ccccc1 | inconclusive: 2.49% |  |
| Cc1cc(/C=C(\C#N)C(=O)Nc2ccccc2)c(C)n1-c1ccc(C(=O)O)cc1 | inconclusive: 1.61% |  |
| CCOC(=O)c1ccc(NC(=O)c2c(NCc3cccs3)sc3c2CCCC3)cc1 |  | inconclusive: 5.62 µM [rising, single point] |
| COc1cc(CC(=O)OCC(=O)NCc2ccc(C)cc2)cc(OC)c1OC | inactive: 0.312% |  |
| CC(/C=N/NC(=O)c1cccnc1)=C\c1ccccc1 |  | inconclusive: 22.4 µM [falling, partial curve, poor fit] |
| Cc1ccc(/C=C/C(=O)c2ccccc2O)cc1 | inactive: 8.12% |  |
| COCC1CCCN(Cc2cn(Cc3ccccc3)nc2-c2cc3ccccc3o2)C1 (configuration not stated) | inconclusive: -16.8% |  |
| Cc1ccc(C2=NN(CC(=O)NCCC(C)C)C(=O)CC2)cc1 | inconclusive: -10.3% |  |
| COC(=O)/C(C#N)=C/c1c(Oc2cccc(C)c2C)nc2ccccn2c1=O | inconclusive: 9.41% |  |
| Cc1nnc(Nc2ccc3c(c2)ncn3C)c2ccccc12 |  | inconclusive: 17.8 µM [falling, single point] |
| O=c1ccnc(SCCc2ccccc2)[nH]1 |  | inconclusive: 35.5 µM [falling, single point] |
| CCOCC(=O)Nc1cc(S(=O)(=O)N2CCOCC2)ccc1N1CCCCC1 | inconclusive: -1.1% |  |
| Cc1ccccc1NC(=O)CCCN1C(=O)C2CC=CCC2C1=O (configuration not stated) | inactive: -0.734% |  |
| Cc1ccn2c(C(=O)N/N=C\c3cccs3)c(C)nc2c1 | inconclusive: 0.446% |  |
